In publication PMC12046049:
No constants are given. Whether binding was seen depends on the method and setting.

Molecular target: HSPB7ACD (α-crystallin domain, residues 78-162 of isoform 2) (human) (UniProt Q9UBY9)
Assay: native MS; ACD incubated with C-terminal peptide, peptide titration; 200 mM ammonium acetate pH 6.9; acetonitrile added to the source housing; fit with a Hill slope model for 1:1 binding; both purified

## TFRTEIKI [HSPB7 C-terminal peptide (residues 168-175, TFRTEIKI)]
  binding: no binding
